From PubChem BioAssay AID493027 (The Scripps Research Institute Molecular Screening Center, 2011)
About 45 (2%) of roughly 2,000 compounds were called active.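 How the source made its calls: active means inhibition above the screen-wide mean inhibition plus 3 SD (cut at about 44% in these data); inactive means the rest.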 The list shows a part of the results.

Sequences of proteins named here, by UniProt entry; tags and fusion partners are left off. A change or cut given only in a name is not applied to a line headed by its entry.
UniProt O60240: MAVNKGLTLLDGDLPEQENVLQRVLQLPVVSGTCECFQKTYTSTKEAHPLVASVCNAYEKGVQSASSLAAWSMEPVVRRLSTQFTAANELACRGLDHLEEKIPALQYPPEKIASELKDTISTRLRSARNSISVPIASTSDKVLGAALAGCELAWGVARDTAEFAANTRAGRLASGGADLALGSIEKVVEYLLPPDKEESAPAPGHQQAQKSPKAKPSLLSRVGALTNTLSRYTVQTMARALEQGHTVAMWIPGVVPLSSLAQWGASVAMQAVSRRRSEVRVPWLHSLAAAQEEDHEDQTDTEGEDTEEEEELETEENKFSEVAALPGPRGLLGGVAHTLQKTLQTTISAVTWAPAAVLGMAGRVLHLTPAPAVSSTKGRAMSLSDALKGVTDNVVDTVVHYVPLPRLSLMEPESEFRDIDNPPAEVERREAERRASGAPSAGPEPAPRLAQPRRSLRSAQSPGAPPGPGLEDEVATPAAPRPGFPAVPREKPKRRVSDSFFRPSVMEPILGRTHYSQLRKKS
UniProt Q8WTS1: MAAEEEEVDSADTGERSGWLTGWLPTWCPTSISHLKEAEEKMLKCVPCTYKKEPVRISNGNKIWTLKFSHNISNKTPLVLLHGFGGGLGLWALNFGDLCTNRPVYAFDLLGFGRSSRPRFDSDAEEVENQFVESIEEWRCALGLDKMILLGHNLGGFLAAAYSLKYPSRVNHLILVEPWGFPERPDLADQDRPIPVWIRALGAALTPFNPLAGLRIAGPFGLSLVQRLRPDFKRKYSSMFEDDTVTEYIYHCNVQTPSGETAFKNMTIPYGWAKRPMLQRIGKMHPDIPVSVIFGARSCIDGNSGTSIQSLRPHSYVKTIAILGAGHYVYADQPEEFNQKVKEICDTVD

biological target: Perilipin-1 (Homo sapiens) + 1-acylglycerol-3-phosphate O-acyltransferase ABHD5 (Homo sapiens) (UniProt O60240+Q8WTS1); assay: blockers of ABHD5 binding to perilipin-1 – cell lysate, split luciferase complementation, luminescence, NIH validation set, pilot screen (AID 493027);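 further: 0% = DMSO wells with the 100% control not disclosed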; details: split G. princeps luciferase complementation, 4 h; at 7.9 µM, hits give high values

inhibition, inactive:
COc1ccc(CCN2C(=O)CSC2c2ccc(OC)c(OC)c2)cc1OC (configuration not stated) 1.8%
CCc1c(C(C)=O)oc2ccc3c(C)cc(=O)oc3c12 -0.52%
O=C1c2ccccc2N2C(=O)c3ccccc3C2N1Cc1ccco1 (configuration not stated) 21.5%
CC12CN3CC(C)(CN(C1)C3c1ccc([N+](=O)[O-])o1)C2 (configuration not stated) -1.9%
CC1(C)CC(NCc2ccccc2)CCO1 (configuration not stated) -5.32%
CCN(CC)C(=O)c1ccc(O)c(OC)c1 -1.24%
O=C(/C=C/c1ccc(Cl)cc1)NCCc1ccccc1 0.13%
COc1ccc(-c2nc3c(=O)n(C)c(=O)[nH]c3n2CCc2ccccc2)cc1 -1.13%
CC(=O)[C@@]1(O)CC[C@H]2[C@@H]3CCC4=CC(=O)CC[C@]4(C)[C@H]3CC[C@@]21C -1.37%
CC(C)CC(=O)N(Cc1ccc(F)cc1)C1CCS(=O)(=O)C1 (configuration not stated) -7.18%
COc1ccccc1NC(=O)Cn1c(C)cc(=O)c2cccc(OC)c21 7.27%
CNCCc1ccccn1 -2.31%
CC(C)CC(NC(=O)c1cccc(Cl)c1)C(=O)O (configuration not stated) -9.25%
CC(C)CCNC(=O)[C@H](CC(C)C)NC(=O)[C@H]1O[C@@H]1C(=O)O -3.69%
CCOc1ccc(N2C(=O)CNC2=S)cc1 -7.79%
Nc1nc2c(ncn2COC(CO)CO)c(=O)[nH]1 -6.19%
CC(=O)OC[C@H]1O[C@@H](Sc2cccc3cccnc23)[C@H](OC(C)=O)[C@@H](OC(C)=O)[C@H]1OC(C)=O -12.3%
Cc1ncc(CN2CCC(CO)(CCc3ccccc3)CC2)s1 -4.02%
O=C(/C=C/c1ccccc1)NCC1(c2ccccc2)CCOCC1 -4.47%
CC1(C)C2CCC1(C)C(OCC[N+](C)(C)CC(=O)OC1CCCCC1)C2 (configuration not stated) 7.62%
COc1ccc(CCn2c(C)cc3c(c2=O)C(c2ccncc2)C(C#N)=C(N)O3)cc1OC (configuration not stated) 4.33%
CC(C)CN(C)Cc1c(C(=O)N2CCc3ccccc3C2)nc2ccc(Cl)cn12 2.31%
COc1ccc(C(=O)N2c3cc4c(cc3C(C)=CC2(C)C)OCO4)cc1 -4.62%
Cc1cc(C(=O)NC(CC(C)C)C(=O)O)cc(C)c1[N+](=O)[O-] (configuration not stated) 0.07%
NC(N)=NC(N)=Nc1ccc2ccccc2c1 -6.89%
COc1ccc(O)c(C2=Nc3ccccc3N=C(c3ccccc3)C2)c1 -7.58%
CCCNC(=O)NS(=O)(=O)c1ccc(Cl)cc1 -4.84%
CC(=O)O[C@]1(C(C)=O)CC[C@H]2[C@@H]3C=C(Cl)C4=CC(=O)CC[C@]4(C)[C@H]3CC[C@@]21C 3.4%
Cc1csc(N)n1 -6.64%
COc1cc2nc(N3CCN(C(=O)C4COc5ccccc5O4)CC3)nc(N)c2cc1OC (configuration not stated) -2.94%
C[C@@H]1C[C@H]2[C@@H]3CCC4=CC(=O)C=C[C@]4(C)[C@@]3(F)[C@@H](O)C[C@]2(C)[C@H]1C(=O)CO -2.1%
COC(=O)c1cc(COc2ccc3ccc(=O)oc3c2)c(C)o1 -9.09%
CCN(CCCCOC(=O)c1ccc(OC)c(OC)c1)C(C)Cc1ccc(OC)cc1 (configuration not stated) -6.73%
Cc1cc(C(C)(C)C)cc(C)c1CC1=NCCN1 -5.42%
COc1cc(-c2nnc(-c3cccs3)o2)cc(OC)c1OC -1.61%
CC(C)C1Cc2[nH]c(=O)c(C(=O)O)cc2CO1 (configuration not stated) -7.52%
CC1(C)Cc2nc3sc4c(=O)n(CC(N)=O)cnc4c3cc2CO1 -4.01%
NC[C@H]1O[C@H](O[C@H]2[C@H](O)[C@@H](O[C@H]3O[C@H](CO)[C@@H](O)[C@H](N)[C@H]3O)[C@H](N)C[C@@H]2N)[C@H](N)C[C@@H]1O -16.2%
Cc1[nH]c2ccccc2c1C(=O)CN1CCCC1 5.17%
COc1cc2c(cc1OC)CN(Cc1ccc(C)s1)CC2 2.36%
Cc1ccc(C(=O)COC(=O)c2cnccn2)cc1[N+](=O)[O-] -4.88%
NC12CC3CC(C1)CC(O)(C3)C2 -11.4%
COc1cc(OC)cc(C(=O)N[C@@H](CCSC)c2nc3ccccc3[nH]2)c1 2.97%
CC1(C)O[C@@H]2C[C@H]3[C@@H]4C[C@H](F)C5=CC(=O)C=C[C@]5(C)[C@@]4(F)[C@@H](O)C[C@]3(C)[C@]2(C(=O)CO)O1 0.56%
O=C(c1ccc(Cl)cc1)C1CCCN(C(=O)/C=C/c2ccccn2)C1 (configuration not stated) 9.97%
CCOC(=O)C1=C(N)Oc2c(c(=O)[nH]c3ccccc23)C1c1ccccc1 (configuration not stated) -33.2%
COc1ccc(CCNC(=O)CC(c2ccccc2)c2cccc(C)c2O)cc1OC (configuration not stated) 4.47%
COc1ccc(/C=C2\CCc3ccccc3C2=O)c(OC)c1OC -0.86%
CC(=O)OCC(=O)C1=CCC2C3CCC4=CC(=O)C=CC4(C)C3(F)C(OC(C)=O)CC12C (configuration not stated) -8.97%
CC#C[C@]1(O)CC[C@H]2[C@@H]3CCC4=CC(=O)CCC4=C3[C@@H](c3ccc(N(C)C)cc3)C[C@@]21C 15.2%
COc1ccc(Cl)cc1C(=O)NCCc1ccc(S(=O)(=O)NC(=O)NC2CCCCC2)cc1 3.61%
FC(F)(F)c1ccc(-c2noc(CN3CCCN(C4CCCCC4)CC3)n2)cc1 -8.86%
COc1cc(CNCCc2c[nH]c3ccccc23)cc(Cl)c1OCC(N)=O 2.16%
COc1cc2[nH]c3c(=O)n(CCN4CCOCC4)cnc3c2cc1OC -2.51%
CC(C)N(C(=O)Cc1ccccc1[N+](=O)[O-])C(C)C -4.05%
CC(=O)Nc1nnc(S(N)(=O)=O)s1 3.22%
CC(C)Oc1ccc2c(=O)c(-c3ccccc3)coc2c1 4.58%
CO[C@H]1C=CO[C@@]2(C)Oc3c(C)c(O)c4c(O)c(c(C=NN5CCN(C)CC5)c(O)c4c3C2=O)NC(=O)C(C)=CC=C[C@H](C)[C@H](O)[C@@H](C)[C@@H](O)[C@@H](C)[C@H](OC(C)=O)[C@@H]1C 3.72%
COC(=O)c1ccc(CC(=O)c2ccc(O)cc2O)o1 19.2%
O=C(O)c1ccc(N2C(=O)/C(=C\c3ccccc3)N=C2c2ccccc2)cc1 13.6%
CC(/C=C1\SC(=O)N(CCCC(=O)O)C1=O)=C\c1ccccc1 13.5%
CCc1cc(/C(Cc2ccccn2)=N\O)c(O)cc1O 3.21%
CCc1cc(-c2[nH]ncc2-c2ccc3c(c2)OCO3)c(O)cc1O 16.6%
Cc1ccc(C(=O)Nc2ccc(O)cc2C(=O)O)cc1C -7.39%
COc1ccc(C2OC(=O)Cc3cc(OC)c(OC)cc32)cc1 (configuration not stated) -1.64%
CCc1c(C)c2ccc(OCC(=O)OC(C)C)c(C)c2oc1=O 0.77%
Cc1ccc2c(c1)c1c3n2CCCN(Cc2ccccc2)C3CCC1 (configuration not stated) -8.82%
CC(C)[C@H](NC(=O)[C@@H]1CSCN1C(=O)OC(C)(C)C)C(=O)NCC1CCC(C(=O)O)CC1 (some centres not stated) -18.7%
COc1ccc(C(=O)[C@H]2[C@H]3C(=O)N(c4ccccc4)C(=O)[C@H]3C3C=CC=NN32)cc1 (some centres not stated) 4.5%
Cc1ccc2[nH]c3c(=O)n(CCCN4CCN(C)CC4)cnc3c2c1 -8.5%
CC1(C)c2ccccc2N2CC(=O)N(CC(N)=O)C21C (configuration not stated) 4.18%
COCC(C)NC(=O)c1ccc(CN2CCc3ccccc3C2)cc1 (configuration not stated) -5.17%
CC(C)C(CCN1C(=O)CCC1=O)C1CCOC(C)(C)C1 (configuration not stated) -3.32%
C[C@@H]1CCC[C@H](C)N1NC(=O)c1ccc(Cl)c(S(N)(=O)=O)c1 -11.3%
O=C(CCCN1C(=O)/C(=C\c2cccc(Br)c2)SC1=S)Nc1cccnc1 35.1%
COC(=O)c1ccccc1OCCOCCOc1cccc2ccc(C)nc12 -2.67%
CCN(CC)CCNC(=O)c1ccc(N)cc1 -8.9%
OC[C@@H](O)[C@@H](O[C@H]1O[C@H](CO)[C@@H](O)[C@H](O)[C@H]1O)[C@H](O)[C@@H](O)CO -12.7%
C[N+](C)(C)CCCC(=O)c1ccc2c(c1)OCO2 -1.39%
CC(=O)C1=C(O)C(=O)N(Cc2cccnc2)C1c1ccc(C(C)C)cc1 (configuration not stated) 3.77%
COc1cc2cc(C)nc(Cc3cccc4ccccc34)c2cc1OC 16.5%
COc1cc(/C=C/C(=O)N2CCCC2)cc(OC)c1OC -1.8%

Compounds above containing a nitro group on carbon, in the order listed:
inhibition, inactive:
CC12CN3CC(C)(CN(C1)C3c1ccc([N+](=O)[O-])o1)C2 (configuration not stated) -1.9%
Cc1cc(C(=O)NC(CC(C)C)C(=O)O)cc(C)c1[N+](=O)[O-] (configuration not stated) 0.07%
Cc1ccc(C(=O)COC(=O)c2cnccn2)cc1[N+](=O)[O-] -4.88%
CC(C)N(C(=O)Cc1ccccc1[N+](=O)[O-])C(C)C -4.05%
